From patent EP0214933A2, “Mixture preparations for the treatment of malaria” (CIBA-GEIGY AG, priority 1985, dated 1987)
At least one compound was matched to its structure with a doubt left.

Tested on: Plasmodium falciparum T96 Zellinie A
Assay: Growth inhibition of chloroquine-sensitive P. falciparum cultured in human erythrocytes
Assay type: cell-based
Settings: Hauptversuch II with this substance in place of chloroquine, combined with Desferrioxamin B
Description: • a) Durch konventionelles Züchten des Stammes Plasmodium falciparum T96 in einer 2 % (V/V) Suspension von humanen Erythrozyten wird der Grundorganismus-Zellinie A fortgepflanzt, welche eine normale Empfindlichkeit gegenüber Chloroquin aufweist. • b) Zellinie A des obigen Stammes wird unter analogen Standardbedingungen wie unter a) gezüchtet, jedoch mit Zusatz von immer ansteigenden Konzentrationen von Chloroquin, bis eine Chloroquinresistente Zellinie B resultiert, welche weiterhin in Kulturmedien mit einer 500 nM-Konzentration von Chloroquin andauernd normales Wachstum (dieselbe Wachstumsraten wie Zellinie A) aufweist.
• I. Die Züchtung von Testorganismen erfolgt unter den für Züchtung von Plasmodien üblichen Bedingungen auf einer 2 % Suspension von humanen Erythrozyten, supplementiert mit 50 mg/1 Hypoxanthin und gegebenenfalls unter Zugabe der getesteten Hemmsubstanz in gewünschter Konzentration. Die initiale Parasitämie (- der prozentuelle Anteil der zu Beginn von Plasmodien infizierten Erythrozyten) beträgt 1-2 %. Das Resultat (Hemmwirkung) wird als IC50 ausgewertet, d.h. jene Konzentration des Wirkstoffes, die eine Senkung der finalen Parasitämie um 50 %, d.h. eine 50%ige Hemmung des Wachstums, verursacht. • II. […]

CCc1nc(N)nc(N)c1-c1ccc(Cl)cc1 [Pyrimethamine, 2,4-Di-amino-5-(4-chlorphenyl)-6-ethylpyrimidin]
Wachstumshemmung (result in words): Analoge Resulte
